{"source": "PubChem BioAssay AID1159584, Peter MacCallum Cancer Centre, 2016", "purpose": "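Knock-downs that harm CDH1-null cells more than parental MCF10A cells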 (primary screen)", "cells": "human MCF10A breast epithelial cells, parental and CDH1-null", "reagent": "siRNA against human genes", "read-out": "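Cell viability by CellTiter-Glo ATP luminescence, each line scaled to the mean of mock wells across plates, then CDH1-null over parental ratio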", "direction": "CDH1-null / parental viability ratio: higher = CDH1-null cells survive relatively better than parental", "note": "Here is a random part of about 18,000 reagents. The numbers tell different reagents against one gene apart. Not all columns of the deposit are shown. Not stated in the record: the amount of reagent, the time to read-out."}
{"gene": "TNRC18", "reagent no.": 1, "CDH1-null / parental viability ratio": 1.14}
{"gene": "ALK", "reagent no.": 1, "CDH1-null / parental viability ratio": 0.92}
{"gene": "TMCO1", "reagent no.": 1, "CDH1-null / parental viability ratio": 1.15}
{"gene": "PGBD3", "reagent no.": 1, "CDH1-null / parental viability ratio": 0.92}
{"gene": "CACNA1I", "reagent no.": 1, "CDH1-null / parental viability ratio": 1.19}
{"gene": "KIR3DP1", "reagent no.": 1, "CDH1-null / parental viability ratio": 0.85}
{"gene": "ANKRD12", "reagent no.": 1, "CDH1-null / parental viability ratio": 1.05}
{"gene": "RBM44", "reagent no.": 1, "CDH1-null / parental viability ratio": 0.62}
{"gene": "GPKOW", "reagent no.": 1, "CDH1-null / parental viability ratio": 1.62}
{"gene": "BHMT", "reagent no.": 1, "CDH1-null / parental viability ratio": 0.92}
{"gene": "AGAP6", "reagent no.": 1, "CDH1-null / parental viability ratio": 0.98}
{"gene": "CT45A2", "reagent no.": 1, "CDH1-null / parental viability ratio": 0.9}
{"gene": "RUNX2", "reagent no.": 1, "CDH1-null / parental viability ratio": 1.09}
{"gene": "RAX", "reagent no.": 1, "CDH1-null / parental viability ratio": 1.17}
{"gene": "ADAMTS17", "reagent no.": 1, "CDH1-null / parental viability ratio": 1.18}
{"gene": "GADD45GIP1", "reagent no.": 1, "CDH1-null / parental viability ratio": 1.38}
{"gene": "RCC1", "reagent no.": 1, "CDH1-null / parental viability ratio": 0.93}
{"gene": "RCC1", "reagent no.": 2, "CDH1-null / parental viability ratio": 1.29}
{"gene": "PTPRB", "reagent no.": 1, "CDH1-null / parental viability ratio": 1.04}
{"gene": "EFHC2", "reagent no.": 1, "CDH1-null / parental viability ratio": 0.9}
{"gene": "ARFGAP1", "reagent no.": 1, "CDH1-null / parental viability ratio": 1.11}
{"gene": "HLA-DRB4", "reagent no.": 1, "CDH1-null / parental viability ratio": 1.26}
{"gene": "SEC22B", "reagent no.": 1, "CDH1-null / parental viability ratio": 0.85}
{"gene": "OR52B2", "reagent no.": 1, "CDH1-null / parental viability ratio": 1.02}
{"gene": "KANSL3", "reagent no.": 1, "CDH1-null / parental viability ratio": 1.17}
{"gene": "CCN5", "reagent no.": 1, "CDH1-null / parental viability ratio": 1.1}
{"gene": "MORN5", "reagent no.": 1, "CDH1-null / parental viability ratio": 1.88}
{"gene": "MC5R", "reagent no.": 1, "CDH1-null / parental viability ratio": 1.32}
{"gene": "ARRDC3", "reagent no.": 1, "CDH1-null / parental viability ratio": 0.95}
{"gene": "BBOF1", "reagent no.": 1, "CDH1-null / parental viability ratio": 1.01}
{"gene": "PKD2L1", "reagent no.": 1, "CDH1-null / parental viability ratio": 1.16}
{"gene": "DMRTC1B", "reagent no.": 1, "CDH1-null / parental viability ratio": 0.77}
{"gene": "MAGEA8", "reagent no.": 1, "CDH1-null / parental viability ratio": 1.32}
{"gene": "TTC6", "reagent no.": 1, "CDH1-null / parental viability ratio": 1.19}
{"gene": "NRBF2", "reagent no.": 1, "CDH1-null / parental viability ratio": 1.17}
{"gene": "PAH", "reagent no.": 1, "CDH1-null / parental viability ratio": 0.85}
{"gene": "ZNF649", "reagent no.": 1, "CDH1-null / parental viability ratio": 1.35}
{"gene": "USP30", "reagent no.": 1, "CDH1-null / parental viability ratio": 0.92}
{"gene": "GNG3", "reagent no.": 1, "CDH1-null / parental viability ratio": 0.96}
{"gene": "LRBA", "reagent no.": 1, "CDH1-null / parental viability ratio": 1.01}
{"gene": "TMEM207", "reagent no.": 1, "CDH1-null / parental viability ratio": 0.95}
{"gene": "CDK5RAP2", "reagent no.": 1, "CDH1-null / parental viability ratio": 0.74}
{"gene": "TBX1", "reagent no.": 1, "CDH1-null / parental viability ratio": 1.38}
{"gene": "HMOX2", "reagent no.": 1, "CDH1-null / parental viability ratio": 0.76}
{"gene": "OR51G2", "reagent no.": 1, "CDH1-null / parental viability ratio": 1.04}

An excerpt taken from the entries so far, as a working copy:
{"gene": "CCN5", "reagent no.": 1, "CDH1-null / parental viability ratio": 1.1}
{"gene": "MORN5", "reagent no.": 1, "CDH1-null / parental viability ratio": 1.88}
{"gene": "MC5R", "reagent no.": 1, "CDH1-null / parental viability ratio": 1.32}
